Consider 63 molecules from PubChem BioAssay AID445 (National Center for Advancing Translational Sciences (NCATS), 2006).

SMILES strings stand for the structures. Where “and” joins values, the source holds several entries; their conditions need not be identical. Equal values may be shown once. This is one part of the list. Further columns of the screen follow, without active or inactive calls. Compounds called inactive in the main read-out are mostly missing here. Words in brackets tell the shape of the fitted curve; partial curves, single points and poor fits give uncertain potencies.

The nature of the test: IkB Signaling. As to conditions: ABC-DLBCL IkBa-CBG/CBR dual luciferase ratio (green luciferase fused to IkBa over red control in OCI-Ly3 lymphoma cells), 4 h. In a few lines:
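In this assay, an IκBα–CBG68 fusion accumulates when IKK-driven degradation is blocked; native CBR normalizes for cell number. OCI-Ly3 cells were treated 4 h with compound and doxycycline, then green and red light read after Chroma-Glo addition.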

[1] abbreviates: measured here: control luc red channel unless noted.

For the molecule `c1ccc(COn2nnc3ccccc32)c(COn2nnc3ccccc32)c1`, the concentration at half-maximal activity (AC50) under setting [1] was 12.6 µM [falling, partial curve].

Regarding `COC(=O)c1c(C)sc(-c2c(-c3cccc(Cl)c3)[nH]c3c2c(=O)[nH]c(=O)n3C)c1O`, the AC50 under setting [1] was 20 µM [falling, partial curve].

For `COc1cccc(C(=O)NCC(=O)N2CCC(C)CC2)c1`, the concentration at half-maximal activity (AC50) under setting [1] is 12.6 µM [falling, partial curve].

As to `COc1ccc(CCNC(=O)CCc2c(C)nc3c(c(C)nn3-c3ccccc3)c2C)c(OC)c1`, the AC50 under setting [1] was 5.01 µM [falling, full curve].

Regarding `c1ccc2c(c1)OCC(c1nn3c(Cn4nnc5ccccc54)nnc3s1)O2` (centres undefined), the AC50 under setting [1] was 12.6 µM [falling, partial curve].

Regarding `CCCNC(=O)CCC(=O)N1Cc2ccccc2Oc2ncccc21`, the AC50 under setting [1] was 6.31 µM [rising, partial curve].

Regarding `Cc1cc(N2CCC(C)CC2)nc2ccc(NC(=O)/C=C/c3cccc(Cl)c3)cc12`, the half-maximal activity concentration (AC50) under setting [1] is 3.98 µM [falling, full curve].

On to `c1ccc2c(-c3nc(-c4ccncc4)no3)cccc2c1`, for which, under setting [1], the concentration at half-maximal activity (AC50) is 0.158 µM [rising, full curve].

As for `CC(C)c1ccc(Nc2c(-c3ccccc3O)nc3cnccn23)cc1`, under setting [1], the concentration at half-maximal activity (AC50) is 12.6 µM [falling, partial curve].

Turning to `COC(=O)Nc1nc2ccc(C(=O)c3cccs3)cc2[nH]1`, the concentration at half-maximal activity (AC50) is 126 nM [rising, full curve] and 200 nM [rising, full curve] (measured here: IkB-luc green channel); 39.8 nM [rising, full curve] and 251 nM [rising, full curve] and 200 nM [rising, full curve] (measured here: control luc red channel).

On to `Cc1ccc2nc(NC(=O)c3cc(=O)c4cc(Cl)ccc4o3)sc2c1`, for which, under setting [1], the AC50 was 39.8 µM [falling, single point].

As to `CC(=O)N1CCc2c(sc3c2c(=O)n(-c2ccc(C)cc2)c(=O)n3CC(=O)Nc2ccccc2)C1`, the AC50 under setting [1] is 2.51 µM [falling, full curve].

`Cn1c(Oc2ccc(F)cc2)nc2c1c(=O)n(Cc1ccccc1Cl)c(=O)n2C`: under setting [1], the AC50 was 12.6 µM [falling, partial curve].

On to `COC(=O)c1c(NC(=O)c2ccccc2C(=O)O)sc2c1CCCC2`, for which the AC50 under setting [1] was 39.8 µM [falling, single point].

Take `COc1ccc(Cn2ccc3nc(C)c(C(=O)Nc4ccc(C)c(F)c4)cc3c2=O)cc1`: under setting [1], the AC50 was 1 µM [rising, partial curve, poor fit].

`O=C(C1CCCN(S(=O)(=O)c2cccs2)C1)N1CCc2ccccc2C1` (centres undefined): the half-maximal activity concentration (AC50) under setting [1] was 20 µM [falling, partial curve].

With `Cn1c(SCC(=O)NCc2ccc3c(c2)OCO3)nc2scc(-c3cccs3)c2c1=O`, the AC50 under setting [1] is 10 µM [falling, partial curve].

Regarding `O=C(C1CCN(S(=O)(=O)c2cccc3nonc23)CC1)N1CCN(c2ccccc2)CC1`, under setting [1], the concentration at half-maximal activity (AC50) is 39.8 µM [falling, single point].

For the molecule `COC(=O)CSc1nnc(CNC(=O)Cc2ccccc2)n1-c1ccccc1OC`, the AC50 under setting [1] is 3.16 µM [falling, partial curve].

Take `CS(=O)(=O)N1CCc2cc(C(=O)N3CCN(c4ccc(F)cc4)CC3)ccc21`: the AC50 under setting [1] is 31.6 µM [falling, single point].

Consider `CC(=O)N1CCCc2ccc(NS(=O)(=O)c3ccc(F)cc3F)cc21`, for which the half-maximal activity concentration (AC50) under setting [1] was 15.8 µM [falling, partial curve].

As to `COc1cc(C(=O)N2CCc3c([nH]c4ccccc34)C2c2ccccc2)cc(OC)c1OC` (centres undefined), the AC50 under setting [1] is 15.8 µM [falling, partial curve, poor fit].

As for `Cc1cccc(N(CC(=O)NCCSc2ccc(Cl)cc2)S(=O)(=O)c2ccccc2)c1C`, under setting [1], the AC50 is 6.31 µM [falling, full curve].

On to `O=C(NCc1ccc(N2CCCC2=O)cc1)Nc1cccc(Cl)c1`, for which the AC50 under setting [1] is 12.6 µM [falling, partial curve].

Turning to `Cc1ccc(C)c(N2CCN(C(=O)c3cc(S(=O)(=O)N4CCCC4)cn3C)CC2)c1`, the AC50 under setting [1] was 25.1 µM [falling, partial curve].

On to `CCOC(=O)C1CCC(CN(Cc2c(Cl)cccc2Cl)S(=O)(=O)c2ccc(F)cc2)CC1` (centres undefined), for which the concentration at half-maximal activity (AC50) under setting [1] was 25.1 µM [falling, single point].

`CCOc1ccc(OCc2cccc(C(=O)O)c2)cc1`: under setting [1], the concentration at half-maximal activity (AC50) was 0.398 µM [falling, full curve].

On to `COc1ccc(N2CCN(c3cc(C)c4ccc(O)cc4n3)CC2)cc1`, for which the AC50 under setting [1] was 12.6 µM [falling, partial curve].

Take `Cc1nc(SCC(=O)Nc2ccc(Br)cc2)[nH]c(=O)c1Cc1ccccc1`: under setting [1], the AC50 was 10 µM [falling, partial curve].

With `Cc1c(Cl)cccc1NC(=O)Cn1nc(C)c2sc3ccccc3c2c1=O`, the AC50 under setting [1] is 3.16 µM [falling, full curve].

For `Cc1ccc(C)c(S(=O)(=O)c2nnn3c2nc(Nc2ccc(F)c(Cl)c2)c2sccc23)c1`, the AC50 under setting [1] is 6.31 µM [falling, partial curve].

In the case of `Cc1ccc2c(c1)N(C(=O)N1CCC(C(=O)NCc3ccco3)CC1)CC(C)O2` (centres undefined), the AC50 under setting [1] is 39.8 µM [falling, single point].

Consider `CCCCOC(=O)c1ccc(NC(=O)Cc2coc3ccc(C(C)C)cc23)cc1`, for which the concentration at half-maximal activity (AC50) under setting [1] is 39.8 µM [falling, single point].

Regarding `COc1ccc(NC(=O)C2C(=O)N(CCO)C3(C)CC2c2ccccc2O3)cc1` (centres undefined), the AC50 under setting [1] was 3.16 µM [falling, full curve, poor fit].

Turning to `Cc1cc(C)c(C(=O)Nc2ccccc2)c(SCC(=O)Nc2ccc(Br)cc2C)n1`, the half-maximal activity concentration (AC50) under setting [1] is 39.8 µM [falling, single point].

For the molecule `CC(=O)c1ccc(N2CCN(C3C(=O)c4ccccc4N3C(C)=O)CC2)cc1` (centres undefined), the AC50 under setting [1] is 31.6 µM [falling, single point].

On to `O=C1CC(Sc2nnc(-c3ccccc3)o2)C(=O)N1c1ccccc1` (centres undefined), for which the half-maximal activity concentration (AC50) under setting [1] is 39.8 µM [falling, single point].

With `COc1ccc(Cl)cc1NC(=O)c1nn(C)c2c1CS(=O)(=O)c1ccccc1-2`, the concentration at half-maximal activity (AC50) under setting [1] is 15.8 µM [falling, single point].

As to `COc1ccc(-n2cc(C(=O)NCc3cccc(OC)c3)c3ccccc3c2=O)cc1`, the AC50 under setting [1] is 2 µM [falling, partial curve].

With `CC(C)Oc1ccc(CNC(=O)CCCn2c(=O)c3cccn3c3cccnc32)cc1`, the half-maximal activity concentration (AC50) under setting [1] is 31.6 µM [falling, single point].

In the case of `O=C(NCc1ccc2c(c1)CCN2C(=O)c1ccncc1)c1ccc(Cl)cc1`, the AC50 under setting [1] is 39.8 µM [falling, single point].

Take `Clc1ccc(OCc2nn3c(-c4ccco4)nnc3s2)cc1`: under setting [1], the concentration at half-maximal activity (AC50) was 20 µM [falling, partial curve].

As to `Cc1c(Cl)cccc1NC(=O)CN1C(=O)CCn2nc(-c3cccn3C)cc21`, the AC50 under setting [1] was 15.8 µM [falling, partial curve].

With `CCn1c(NCc2cccc(Cl)c2)nc2ccccc21`, under setting [1], the AC50 was 31.6 µM [falling, single point].

As for `COc1cc(-c2nc3ccc(C)cn3c2Nc2ccc(Cl)cc2)ccc1O`, the AC50 under setting [1] was 5.01 µM [falling, full curve].

On to `O=C(CSc1nc(-c2ccccc2)cn1-c1ccccc1)Nc1ccccc1`, for which the half-maximal activity concentration (AC50) under setting [1] was 39.8 µM [falling, single point].

On to `O=C(NCCCN1CCCCC1)c1cc(Sc2ccc(Cl)cc2)nc2ccccc12`, for which the AC50 under setting [1] was 31.6 µM [falling, single point].

`Cc1ccc(-n2c3c(cc(C(=O)NCc4ccco4)c2=O)C(=O)CC(C)(C)C3)cc1`: the half-maximal activity concentration (AC50) under setting [1] was 20 µM [falling, partial curve].

For `Cc1ccc(-c2nn(-c3ccccc3)cc2C2SCC(=O)N2Cc2ccccc2)o1` (centres undefined), the AC50 under setting [1] was 7.94 µM [falling, partial curve].

On to `O=C(Cn1c(=O)n(Cc2ccc3c(c2)OCO3)c(=O)c2ccc(C(=O)NC3CCCCC3)cc21)Nc1ccccc1F`, for which the AC50 under setting [1] is 31.6 µM [falling, partial curve].

Consider `Cc1cccn2c(=O)c3cc(C(=O)NCc4ccccc4Cl)sc3nc12`, for which, under setting [1], the AC50 was 1.58 µM [rising, full curve].

As to `CCOC(=O)c1cc(-c2ccccc2)n(CCCC(=O)Nc2ccc(C)cc2C)c1C`, the concentration at half-maximal activity (AC50) under setting [1] is 0.631 µM [rising, single point].

On to `COc1cccc(NC2SC(=O)N(c3ccccc3)C2=O)c1` (centres undefined), for which, under setting [1], the AC50 is 0.0126 µM [falling, full curve, poor fit].

On to `Cc1cccc(-n2c3nc(=O)n(C)c(=O)c-3cc3ccc(Cl)cc32)c1C`, for which the AC50 under setting [1] is 5.01 µM [falling, partial curve].

In the case of `Cc1noc2ncnc(NCc3cccc(Cl)c3)c12`, the concentration at half-maximal activity (AC50) under setting [1] is 15.8 µM [falling, single point].

`Oc1cccc(Nc2ncnc3sc4c(c23)CCCC4)c1`: the half-maximal activity concentration (AC50) under setting [1] was 31.6 µM [falling, partial curve].

For `CCOc1ccc(-n2c(SCC(=O)N3CCCCC3)nc3c([nH]c4ccccc43)c2=O)cc1`, the AC50 under setting [1] is 0.2 µM [falling, single point].

Take `COc1cc(S(=O)(=O)N2CCCCC2)ccc1NC=O`: under setting [1], the AC50 was 3.16 µM [rising, partial curve].

In the case of `CC(C)(C)C(=O)N1CCN(c2nc3c(F)cccc3s2)CC1`, under setting [1], the AC50 was 2.51 µM [rising, partial curve].

For the molecule `O=C(CSc1nc(=O)n(Cc2ccco2)c2c1CCC2)NCc1ccc(F)cc1`, under setting [1], the half-maximal activity concentration (AC50) is 15.8 µM [falling, partial curve].

Take `CCc1ccc(NC(=O)CSc2nc(=O)n(Cc3ccco3)c3c2CCC3)cc1`: the half-maximal activity concentration (AC50) under setting [1] was 25.1 µM [falling, single point].

Turning to `COc1ccc(S(=O)(=O)N2CCCN(CCC(=O)Nc3cccc(C(F)(F)F)c3)CC2)cc1`, the AC50 under setting [1] was 20 µM [falling, partial curve].

In the case of `O=C(NC1CC(=O)N(c2ccc(Cl)cc2)C1)c1cccs1` (centres undefined), the AC50 under setting [1] was 5.01 µM [rising, partial curve].

As a reminder, the AC50 is the concentration giving half of the maximal activity seen.
